Results from PubChem BioAssay AID662 (National Center for Advancing Translational Sciences (NCATS), 2007).
The other results are listed elsewhere or left out. Shown are side measurements of this screen, not its main read-out; they come without a call. Compounds called inactive in the main read-out are mostly missing here. Potencies come from curve fits of mixed quality, noted in brackets.

Assay: Cell signaling CRE-BLA (Fsk stim)
Details: CHO CRE-bla reporter (cAMP response element driving beta-lactamase), forskolin EC10, beta-lactamase ratio; measured here: 460 nm blue channel
How it was run: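 CRE-bla CHO reporter cells treated with compound titration plus EC10 NKH 477 (water-soluble forskolin), incubated 3 h at 37 °C; CCF4 loading 2 h at room temperature, 460/530 nm emission ratio read, AC50 values derived for positive or negative modulators.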
For `CCCCOc1ccccc1NC(=O)c1ccco1`, the AC50 was 10 µM [rising, partial curve]. For `COc1ccc(C(=O)n2c(-c3ccco3)nc3ccccc32)cc1`, the AC50 was 5.01 µM [falling, single point]. In the case of `COc1ccccc1CNc1ccnc(-c2ccc(N(C)C)cc2)n1`, the AC50 was 25.1 µM [rising, single point]. For `O=C(NCc1ccco1)c1cc(-c2ccncc2)nc2ccccc12`, the AC50 was 5.01 µM [falling, single point]. In the case of `Cc1ccc(Nc2cc(-n3nc(C)cc3C)ncn2)cc1`, the AC50 was 0.398 µM [falling, full curve]. For `Cc1noc(C)c1CSc1nnc2scc(-c3ccccc3)n12`, the AC50 was 1.58 µM [rising, full curve]. With `Cc1ccc(-n2ncc3c(=O)[nH]c(SCC(=O)N4CCCCC4)nc32)cc1` the AC50 was 10 µM [rising, partial curve]. With `COc1ccc(CC(NC(C)=O)C(=O)NC2CCN(c3nnnn3-c3ccccc3)CC2)cc1` (stereo not drawn) the AC50 was 0.1 µM [falling, full curve]. In the case of `FC(F)(F)c1ccc(N2CCOCC2)c(NC2=NCCCCC2)c1`, the AC50 was 7.94 µM [falling, partial curve]. In the case of `COc1ccc(NC(=O)c2[nH]c(C)c(C(C)=O)c2C)cc1Cl`, the AC50 was 0.0251 µM [falling, full curve, poor fit]. In the case of `Cn1cc(S(=O)(=O)N2CCN(c3cccc(C(F)(F)F)c3)CC2)c(=O)n(C)c1=O`, the AC50 was 12.6 µM [rising, partial curve]. With `CCCN(CCC)C(=O)CSc1nc2n[nH]c(C)c2c(=N)n1-c1ccc(OCC)cc1` the AC50 was 0.398 µM [rising, full curve]. In the case of `CCNc1ncc2nc(-c3cn(C)c4ccccc34)c(=O)n(Cc3cccs3)c2n1`, the AC50 was 12.6 µM [rising, partial curve]. In the case of `CCOC(=O)c1[nH]c(C)c(/C(O)=C2\C(=O)C(=O)N(CCCN3CCOCC3)C2c2cccnc2)c1C` (stereo not drawn), the AC50 was 20 µM [falling, partial curve, poor fit]. With `O=C(C1CCCN1S(=O)(=O)c1ccc(Cl)c(Cl)c1)N1CCCCC1` (stereo not drawn) the AC50 was 0.00631 µM [falling, full curve]. In the case of `CCCOc1ccc(OC(=O)c2ccc(Br)o2)cc1`, the AC50 was 0.0126 µM [falling, full curve]. With `CCOC(=O)CSc1nnc(CNC(=O)Cc2ccccc2)n1C` the AC50 was 10 µM [rising, partial curve]. For `c1ccc(Nc2nc3ccccc3n3cnnc23)cc1`, the AC50 was 10 µM [rising, single point]. With `COc1ccccc1NC(=O)Nn1cnnc1` the AC50 was 5.01 µM [falling, full curve, poor fit]. For `CCc1ccc(NC(=O)CSc2nnc(-c3cnccn3)n2Cc2ccco2)cc1`, the AC50 was 12.6 µM [falling, partial curve]. For `COC(=O)c1cccc(NC(=O)NC2CCCN2S(=O)(=O)c2ccc(Cl)cc2)c1` (stereo not drawn), the AC50 was 0.01 µM [falling, full curve]. For `Cc1cccc(S(=O)(=O)C(C#N)c2nc3ccccc3nc2N2CC(C)OC(C)C2)c1` (stereo not drawn), the AC50 was 10 µM [rising, partial curve]. With `Cc1ccc(S(=O)(=O)N2CCCN(S(=O)(=O)c3ccc(C)cc3)CC2)cc1` the AC50 was 7.94 µM [rising, partial curve]. With `CCCCCCC(=O)N(O)C1CC(=O)N(c2ccccc2)C1=O` (stereo not drawn) the AC50 was 3.16 µM [falling, partial curve, poor fit]. In the case of `CCOc1ccc(C2C(C(=O)c3ccco3)=C(O)C(=O)N2Cc2cccnc2)cc1OC` (stereo not drawn), the AC50 was 20 µM [falling, single point]. In the case of `COc1cccc(Cn2c(=O)c(-c3cn(C)c4ccccc34)nc3cnc(N4CCNCC4)nc32)c1`, the AC50 was 5.01 µM [rising, partial curve]. For `COc1ccc(NC(=O)[C@@H]2[C@@H]3C(=O)N(C4CCCCC4)C(=O)[C@@H]3C3c4ccccc4C=CN32)cc1` (stereo partly drawn), the AC50 was 1.26 µM [falling, full curve]. For `Cc1cc2c(nn1)CCc1nonc1-2`, the AC50 was 3.16 µM [rising, full curve]. In the case of `Cn1nc(C(=O)Nc2c(-c3ccccc3)nc3sccn23)c2ccccc2c1=O`, the AC50 was 3.16 µM [rising, full curve]. In the case of `C=CCn1c2ccccc2c2nnc(SCCCn3c(=O)[nH]c4ccccc43)nc21`, the AC50 was 1.58 µM [rising, partial curve]. In the case of `COc1cccc(CNC(=O)C2CCN(C(=O)N(C)C)CC2)c1`, the AC50 was 5.01 µM [falling, single point]. For `Cc1nc2cnc(Oc3cccc(Cl)c3)nc2n(C2CC2)c1=O`, the AC50 was 25.1 µM [rising, single point]. In the case of `COc1cccc(-c2nn(C)c3sc(C(=O)N4CCN(c5ccccc5)CC4)cc23)c1`, the AC50 was 2.51 µM [rising, full curve]. With `Nc1cc(N)nc(SCc2cc(=O)oc3cc4c(cc23)CCC4)n1` the AC50 was 10 µM [rising, partial curve]. With `Cc1ccc2c(COC(=O)c3n[nH]c4ccccc34)cc(=O)oc2c1` the AC50 was 10 µM [rising, single point]. With `Cc1nn(CCc2nn[nH]n2)c2nc(C(F)(F)F)cc(C(F)(F)F)c12` the AC50 was 10 µM [rising, partial curve]. For `COc1ccc2nc(N3CCCC3)c(C#N)cc2c1`, the AC50 was 10 µM [rising, partial curve]. For `CCOC(=O)CSc1nc(N)nc(C)c1Br`, the AC50 was 0.316 µM [rising, full curve, poor fit]. In the case of `O=C(O)c1cc(S(=O)(=O)Nc2ccc3oc(=O)sc3c2)ccc1O`, the AC50 was 1 µM [rising, partial curve]. In the case of `COc1ccc(S(=O)(=O)N2CCN(CCO)CC2)cc1-c1nnc2c3ccccc3c(C)nn12`, the AC50 was 12.6 µM [rising, single point]. In the case of `CCc1ccc(C2=Nn3c(nnc3-c3cccs3)SC2)cc1`, the AC50 was 7.94 µM [rising, partial curve]. With `COc1cc(CC(=O)Nc2nccs2)cc(OC)c1OC` the AC50 was 0.126 µM [falling, single point]. With `Cc1ccc(C(O)c2nccn2C)o1` (stereo not drawn) the AC50 was 12.6 µM [falling, partial curve].
